Assay results as given in the supplement of paper PMC10849652.
Some of the results follow. Residues, ends and D or L forms follow the SMILES beside them. *: point of attachment. Cbz = O=C(OCc1ccccc1)*

Protein sequences, listed by entry. Tags and fused reporters are not part of them. Lines headed by an entry give the natural chain unless they say otherwise; changes in a name come on top.
UniProt P42574: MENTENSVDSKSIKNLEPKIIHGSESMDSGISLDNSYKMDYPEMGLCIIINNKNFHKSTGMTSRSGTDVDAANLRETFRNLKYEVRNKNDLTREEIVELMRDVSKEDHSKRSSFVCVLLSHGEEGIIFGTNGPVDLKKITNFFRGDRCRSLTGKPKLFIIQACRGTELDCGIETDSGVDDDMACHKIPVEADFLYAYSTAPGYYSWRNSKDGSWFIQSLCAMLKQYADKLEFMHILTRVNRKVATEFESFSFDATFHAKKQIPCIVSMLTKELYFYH
UniProt P14209: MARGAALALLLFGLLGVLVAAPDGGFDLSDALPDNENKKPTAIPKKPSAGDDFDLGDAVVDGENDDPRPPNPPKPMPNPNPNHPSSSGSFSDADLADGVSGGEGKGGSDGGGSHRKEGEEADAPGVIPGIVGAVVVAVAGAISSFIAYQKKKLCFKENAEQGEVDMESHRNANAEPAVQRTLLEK
UniProt Q9Y3X0: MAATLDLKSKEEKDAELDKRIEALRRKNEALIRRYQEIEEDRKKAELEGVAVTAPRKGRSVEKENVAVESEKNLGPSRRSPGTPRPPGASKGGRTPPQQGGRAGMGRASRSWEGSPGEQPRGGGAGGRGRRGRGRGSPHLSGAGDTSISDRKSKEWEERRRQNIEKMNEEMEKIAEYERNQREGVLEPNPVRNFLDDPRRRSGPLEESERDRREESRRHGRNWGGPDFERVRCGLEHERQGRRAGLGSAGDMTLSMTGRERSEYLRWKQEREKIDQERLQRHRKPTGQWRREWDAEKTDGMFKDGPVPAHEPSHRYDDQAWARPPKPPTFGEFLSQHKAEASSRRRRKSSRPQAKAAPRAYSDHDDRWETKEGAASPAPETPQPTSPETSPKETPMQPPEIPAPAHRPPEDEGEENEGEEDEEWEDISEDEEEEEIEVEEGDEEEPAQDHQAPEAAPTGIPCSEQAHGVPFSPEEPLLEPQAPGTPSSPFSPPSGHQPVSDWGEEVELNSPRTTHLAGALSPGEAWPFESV
UniProt P86791: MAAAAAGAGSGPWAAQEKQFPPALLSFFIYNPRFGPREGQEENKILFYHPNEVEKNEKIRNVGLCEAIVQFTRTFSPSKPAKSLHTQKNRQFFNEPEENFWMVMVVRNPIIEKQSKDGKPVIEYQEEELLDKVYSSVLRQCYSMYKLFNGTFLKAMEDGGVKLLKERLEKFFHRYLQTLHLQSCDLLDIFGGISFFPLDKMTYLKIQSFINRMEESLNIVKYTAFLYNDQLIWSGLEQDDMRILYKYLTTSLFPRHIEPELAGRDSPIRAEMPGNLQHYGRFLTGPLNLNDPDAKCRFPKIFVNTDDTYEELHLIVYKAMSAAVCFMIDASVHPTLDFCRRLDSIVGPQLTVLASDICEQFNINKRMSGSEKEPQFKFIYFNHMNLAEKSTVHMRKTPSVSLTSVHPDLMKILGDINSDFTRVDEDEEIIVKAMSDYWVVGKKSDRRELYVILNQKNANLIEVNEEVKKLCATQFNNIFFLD
UniProt Q9P0B6: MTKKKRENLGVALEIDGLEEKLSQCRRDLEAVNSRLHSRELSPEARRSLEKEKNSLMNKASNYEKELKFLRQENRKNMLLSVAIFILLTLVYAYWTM
UniProt P30304: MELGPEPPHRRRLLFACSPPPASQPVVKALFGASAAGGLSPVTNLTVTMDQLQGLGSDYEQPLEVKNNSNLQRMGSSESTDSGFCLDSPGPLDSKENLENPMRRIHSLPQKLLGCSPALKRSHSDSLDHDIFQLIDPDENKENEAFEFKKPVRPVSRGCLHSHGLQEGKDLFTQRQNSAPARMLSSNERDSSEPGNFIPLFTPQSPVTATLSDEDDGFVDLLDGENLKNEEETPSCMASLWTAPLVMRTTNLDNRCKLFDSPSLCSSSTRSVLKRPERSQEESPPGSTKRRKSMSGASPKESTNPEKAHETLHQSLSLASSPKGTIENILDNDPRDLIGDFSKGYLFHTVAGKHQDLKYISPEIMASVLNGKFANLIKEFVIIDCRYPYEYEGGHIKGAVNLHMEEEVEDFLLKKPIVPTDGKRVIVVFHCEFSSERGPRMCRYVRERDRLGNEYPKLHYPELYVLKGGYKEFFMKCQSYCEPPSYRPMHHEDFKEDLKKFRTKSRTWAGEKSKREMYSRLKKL
UniProt O60508: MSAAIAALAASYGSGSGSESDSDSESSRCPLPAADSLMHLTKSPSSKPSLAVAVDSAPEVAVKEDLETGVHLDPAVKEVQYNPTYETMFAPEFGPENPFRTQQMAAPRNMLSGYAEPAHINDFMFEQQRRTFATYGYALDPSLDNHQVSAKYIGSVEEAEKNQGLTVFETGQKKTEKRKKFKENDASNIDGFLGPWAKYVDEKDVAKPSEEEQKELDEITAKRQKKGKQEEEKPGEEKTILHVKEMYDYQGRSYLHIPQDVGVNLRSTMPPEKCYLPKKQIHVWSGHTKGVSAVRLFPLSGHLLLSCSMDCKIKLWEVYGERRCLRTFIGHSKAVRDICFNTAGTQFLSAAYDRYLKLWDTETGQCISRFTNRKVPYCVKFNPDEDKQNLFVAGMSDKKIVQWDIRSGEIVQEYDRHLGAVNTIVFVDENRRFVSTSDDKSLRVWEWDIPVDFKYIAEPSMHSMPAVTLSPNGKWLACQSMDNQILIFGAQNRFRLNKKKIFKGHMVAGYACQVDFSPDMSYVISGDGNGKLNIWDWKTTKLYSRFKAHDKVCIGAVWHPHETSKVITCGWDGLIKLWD
UniProt P16152: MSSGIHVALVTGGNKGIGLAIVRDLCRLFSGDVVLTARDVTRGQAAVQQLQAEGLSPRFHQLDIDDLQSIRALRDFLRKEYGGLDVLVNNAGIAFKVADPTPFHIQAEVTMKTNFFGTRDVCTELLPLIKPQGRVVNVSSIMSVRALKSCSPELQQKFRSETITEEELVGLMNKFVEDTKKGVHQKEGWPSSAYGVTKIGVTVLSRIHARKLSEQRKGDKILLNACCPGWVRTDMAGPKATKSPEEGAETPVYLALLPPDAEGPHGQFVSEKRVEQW
UniProt P60033: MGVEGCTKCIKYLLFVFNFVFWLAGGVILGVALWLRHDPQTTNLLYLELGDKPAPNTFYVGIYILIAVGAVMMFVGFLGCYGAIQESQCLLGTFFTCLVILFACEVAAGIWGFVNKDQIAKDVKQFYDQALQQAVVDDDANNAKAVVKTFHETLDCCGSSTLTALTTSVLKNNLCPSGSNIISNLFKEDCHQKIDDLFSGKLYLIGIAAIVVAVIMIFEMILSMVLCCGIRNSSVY
UniProt P30305: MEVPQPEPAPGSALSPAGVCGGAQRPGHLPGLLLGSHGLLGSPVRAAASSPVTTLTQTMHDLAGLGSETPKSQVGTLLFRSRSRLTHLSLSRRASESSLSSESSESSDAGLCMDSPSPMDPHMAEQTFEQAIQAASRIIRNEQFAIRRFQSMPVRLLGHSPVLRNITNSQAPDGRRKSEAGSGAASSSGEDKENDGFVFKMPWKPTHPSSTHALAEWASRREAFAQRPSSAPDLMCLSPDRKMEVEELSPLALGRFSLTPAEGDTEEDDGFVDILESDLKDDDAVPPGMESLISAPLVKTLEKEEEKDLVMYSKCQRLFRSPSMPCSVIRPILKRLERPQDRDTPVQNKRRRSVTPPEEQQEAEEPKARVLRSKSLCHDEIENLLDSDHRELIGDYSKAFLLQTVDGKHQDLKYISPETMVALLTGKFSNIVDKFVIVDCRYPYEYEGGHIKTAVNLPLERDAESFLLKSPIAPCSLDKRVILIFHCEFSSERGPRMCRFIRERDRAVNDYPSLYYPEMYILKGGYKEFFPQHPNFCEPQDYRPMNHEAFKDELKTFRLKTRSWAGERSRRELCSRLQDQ
UniProt Q14790: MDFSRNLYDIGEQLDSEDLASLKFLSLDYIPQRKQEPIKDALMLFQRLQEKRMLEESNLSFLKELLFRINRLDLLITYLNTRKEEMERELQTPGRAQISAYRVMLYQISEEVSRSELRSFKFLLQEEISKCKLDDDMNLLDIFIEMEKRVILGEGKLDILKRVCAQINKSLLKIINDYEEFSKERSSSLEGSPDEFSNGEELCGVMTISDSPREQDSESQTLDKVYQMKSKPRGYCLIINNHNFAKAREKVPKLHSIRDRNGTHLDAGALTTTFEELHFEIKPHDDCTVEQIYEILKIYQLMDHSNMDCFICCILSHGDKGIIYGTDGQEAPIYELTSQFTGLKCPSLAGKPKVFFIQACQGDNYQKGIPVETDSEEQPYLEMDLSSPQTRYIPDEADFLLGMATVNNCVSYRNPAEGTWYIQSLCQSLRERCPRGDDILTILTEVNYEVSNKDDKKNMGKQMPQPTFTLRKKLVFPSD
UniProt P0C221: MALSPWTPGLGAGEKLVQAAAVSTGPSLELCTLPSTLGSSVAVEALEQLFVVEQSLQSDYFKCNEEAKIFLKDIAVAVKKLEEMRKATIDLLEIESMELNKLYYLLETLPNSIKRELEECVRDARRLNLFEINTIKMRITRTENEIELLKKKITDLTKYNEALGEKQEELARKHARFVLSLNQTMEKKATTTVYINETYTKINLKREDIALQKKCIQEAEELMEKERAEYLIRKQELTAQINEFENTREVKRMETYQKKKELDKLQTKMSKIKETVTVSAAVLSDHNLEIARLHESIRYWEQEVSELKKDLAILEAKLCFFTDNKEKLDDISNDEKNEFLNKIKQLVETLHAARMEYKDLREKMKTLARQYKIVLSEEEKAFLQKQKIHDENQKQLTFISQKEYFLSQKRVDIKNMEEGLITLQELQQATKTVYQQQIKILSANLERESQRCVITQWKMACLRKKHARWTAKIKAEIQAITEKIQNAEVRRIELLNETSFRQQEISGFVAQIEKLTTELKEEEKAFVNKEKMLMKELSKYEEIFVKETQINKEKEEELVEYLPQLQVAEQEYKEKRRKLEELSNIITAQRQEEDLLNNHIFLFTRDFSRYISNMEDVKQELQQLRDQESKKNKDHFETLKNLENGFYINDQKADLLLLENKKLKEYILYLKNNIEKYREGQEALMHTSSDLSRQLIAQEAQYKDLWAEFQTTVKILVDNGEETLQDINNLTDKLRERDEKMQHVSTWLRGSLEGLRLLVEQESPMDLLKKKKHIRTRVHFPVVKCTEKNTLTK
UniProt O95400: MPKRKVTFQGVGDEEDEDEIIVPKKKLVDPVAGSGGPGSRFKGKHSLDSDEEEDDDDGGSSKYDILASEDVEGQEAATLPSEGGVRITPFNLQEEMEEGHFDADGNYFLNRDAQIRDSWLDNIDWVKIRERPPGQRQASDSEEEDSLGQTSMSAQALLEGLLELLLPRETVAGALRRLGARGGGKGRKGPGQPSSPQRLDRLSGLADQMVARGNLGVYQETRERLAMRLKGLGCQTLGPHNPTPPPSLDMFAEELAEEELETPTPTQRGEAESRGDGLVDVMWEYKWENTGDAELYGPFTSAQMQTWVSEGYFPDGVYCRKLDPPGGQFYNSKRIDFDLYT
UniProt Q07108: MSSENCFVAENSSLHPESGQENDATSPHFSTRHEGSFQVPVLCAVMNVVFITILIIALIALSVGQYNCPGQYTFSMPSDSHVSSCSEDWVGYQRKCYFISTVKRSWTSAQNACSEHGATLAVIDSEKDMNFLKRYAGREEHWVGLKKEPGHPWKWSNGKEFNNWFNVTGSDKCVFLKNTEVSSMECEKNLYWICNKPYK
UniProt P14635, whole entry, looked up: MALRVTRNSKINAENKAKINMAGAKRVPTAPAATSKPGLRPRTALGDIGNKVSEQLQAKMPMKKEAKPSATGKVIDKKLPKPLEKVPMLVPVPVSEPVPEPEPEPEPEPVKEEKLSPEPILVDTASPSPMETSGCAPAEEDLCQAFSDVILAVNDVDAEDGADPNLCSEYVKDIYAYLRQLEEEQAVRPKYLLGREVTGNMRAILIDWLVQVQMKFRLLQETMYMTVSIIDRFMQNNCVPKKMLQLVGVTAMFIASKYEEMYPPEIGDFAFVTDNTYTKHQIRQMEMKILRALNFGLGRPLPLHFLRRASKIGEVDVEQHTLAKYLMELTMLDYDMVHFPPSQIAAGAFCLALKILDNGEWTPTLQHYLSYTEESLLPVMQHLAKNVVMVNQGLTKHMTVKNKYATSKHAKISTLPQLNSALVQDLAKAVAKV

Assays:
Assay in all cases: log2 fold change, soluble protein after heating vs DMSO (PISA); higher = thermal stabilisation; K562 cells, 10 uM, 30 min; active = over 0.2 and 3.5 SD of the protein, either way, in both replicates (recomputed)
IRAK-1-4 Inhibitor I = compound: C1COCCN1CCN2C3=CC=CC=C3N=C2NC(=O)C4=CC(=CC=C4)[N+](=O)[O-] [IRAK-1-4 Inhibitor I]
How it was run: (§1)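 K562 cells at 2×10^6 cells/mL were treated for 30 min with 10 μM compound, and aliquots were heated for 3 min over 48°C-58°C before pooling. Extraction used PBS with 0.5% NP-40 at 4°C, and soluble protein was the supernatant after 21,000xg for 90 min, measured by TMTpro 16plex LC-MS/MS with channel sums equalised. Thermal stability values, relative to control samples and from duplicates, are log2 fold changes.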

ibrutinib = compound: C=CC(=O)N1CCC[C@@H](n2nc(-c3ccc(Oc4ccccc4)cc3)c3c(N)ncnc32)C1 [ibrutinib]
How it was run: as §1

[1] = compound: CC(=O)c1cnc2ccc(-c3cc(Cl)c(O)c(Cl)c3)nc2c1N[C@H]1CC[C@H](CN(C)C)CC1
How it was run: as §1

ralimetinib = compound: CC(C)(C)Cn1c(N)nc2ccc(-c3[nH]c(C(C)(C)C)nc3-c3ccc(F)cc3)nc21 [ralimetinib]
How it was run: as §1

[2] = compound: CC(C)(O)CC(=O)NCCn1ccc2ncnc(Nc3ccc(Oc4cccc(C(F)(F)F)c4)c(Cl)c3)c21
How it was run: as §1

[3] = compound: CC(C)C1=C2N=C(C=C(N2N=C1)NCC3=CC=CC=C3)NCCCCCCN
How it was run: as §1

[4] = compound: CC(C)C[C@@H](C=O)NC(=O)[C@H](CC(C)C)NC(=O)[C@H](CC(C)C)NC(=O)OCc1ccccc1
How it was run: as §1

pinometostat = compound: CC(C)N(C[C@H]1O[C@@H](n2cnc3c(N)ncnc32)[C@H](O)[C@@H]1O)[C@H]1C[C@@H](CCc2nc3cc(C(C)(C)C)ccc3[nH]2)C1 [pinometostat]
How it was run: as §1

[5] = compound: CC1=C(C2=C(C=C1)C(=O)C3=CC=CC=C3N2CCCN)C
How it was run: as §1

[6] = compound: CC1=C(C=C(C=C1)NC(=O)C2=CC(=CC=C2)C(C)(C)C#N)NC3=CC4=C(C=C3)N=CN(C4=O)C
How it was run: as §1

[7] = compound: CC1=C(C=C(C=C1)NC(=O)C2=CC(=CC=C2)N(C)C)NC(=O)C3=CC=C(C=C3)O
How it was run: as §1

[8] = compound: CC1=CC=C(C=C1)SC2=C3C=C(SC3=CN=C2)C(=O)N
How it was run: as §1

[9] = compound: CC1=NC(=CC=C1)C2=C(N=C(N2)C(C)(C)C)C3=CC4=NC=CN=C4C=C3
How it was run: as §1

Nexturastat A = compound: CCCCN(Cc1ccc(C(=O)NO)cc1)C(=O)Nc1ccccc1 [Nexturastat A]
How it was run: as §1

vemurafenib = compound: CCCS(=O)(=O)Nc1ccc(F)c(C(=O)c2c[nH]c3ncc(-c4ccc(Cl)cc4)cc23)c1F [vemurafenib]
How it was run: as §1

[10] = compound: CCCS(=O)(=O)Nc1ccc(F)c(C(=O)c2c[nH]c3ncc(Cl)cc23)c1F
How it was run: as §1

[11] = compound: CCCc1cc(C)[nH]c(=O)c1CNC(=O)c1cc(-c2ccnc(N3CCN(C)CC3)c2)cc2c1cnn2C(C)C
How it was run: as §1

givinostat = compound: CCN(CC)Cc1ccc2cc(COC(=O)Nc3ccc(C(=O)NO)cc3)ccc2c1 [givinostat]
How it was run: as §1

barasertib = compound: CCN(CCCOc1ccc2c(Nc3cc(CC(=O)Nc4cccc(F)c4)[nH]n3)ncnc2c1)CCOP(=O)(O)O [barasertib]
How it was run: as §1

[12] = compound: CC1=C(C(CC(=O)N1)C2=CC=C(C=C2)C(F)(F)F)C(=O)NC3=C(C=C4C(=C3)C=NN4)F
How it was run: as §1

Target	log2 fold change (IRAK-1-4 Inhibitor I)	log2 fold change (ibrutinib)	log2 fold change [1]	log2 fold change (ralimetinib)	log2 fold change [2]	log2 fold change [3]	log2 fold change [4]	log2 fold change (pinometostat)	log2 fold change [5]	log2 fold change [6]	log2 fold change [7]	log2 fold change [8]	log2 fold change [9]	log2 fold change (Nexturastat A)	log2 fold change (vemurafenib)	log2 fold change [10]	log2 fold change [11]	log2 fold change (givinostat)	log2 fold change (barasertib)	log2 fold change [12]
CASP3 (UniProt P42574)	inactive: 0.074	inactive: 0.008	inactive: 0	inactive: -0.022	inactive: 0.043	inactive: 0.048	inactive: 0.067	inactive: -0.076	inactive: 0.05	inactive: -0.049	inactive: 0.086	inactive: 0.009	inactive: 0.065	inactive: -0.025	inactive: -0.009	inactive: 0.022	inactive: 0.113	inactive: -0.029	inactive: -0.005	–
CD99 (UniProt P14209)	inactive: 0.04	inactive: 0	inactive: -0.103	–	inactive: -0.033	inactive: 0.072	–	inactive: -0.094	inactive: 0.123	inactive: 0.003	–	inactive: -0.134	inactive: 0.005	inactive: -0.007	inactive: 0.003	inactive: -0.092	inactive: 0.021	inactive: 0.016	inactive: 0.021	inactive: 0.015
CCDC9 (UniProt Q9Y3X0)	inactive: -0.05	inactive: 0.078	inactive: 0.173	inactive: 0.031	inactive: 0.053	inactive: 0.105	inactive: 0.087	inactive: -0.024	active: 0.296	inactive: -0.042	inactive: 0.007	inactive: 0.019	inactive: 0.055	inactive: 0.119	inactive: -0.007	inactive: -0.009	inactive: -0.004	inactive: -0.069	inactive: 0.021	–
CCZ1 (UniProt P86791)	inactive: 0.063	inactive: -0.001	inactive: -0.039	inactive: -0.051	inactive: -0.05	active: -0.287	inactive: 0.025	inactive: 0.012	inactive: 0.006	inactive: -0.005	inactive: -0.029	inactive: 0.014	inactive: 0.035	inactive: 0.009	inactive: 0.024	inactive: 0.011	inactive: -0.029	inactive: 0.028	inactive: -0.011	–
CCDC167 (UniProt Q9P0B6)	inactive: -0.056	inactive: 0.013	–	inactive: -0.028	inactive: 0.163	inactive: -0.258	inactive: 0.061	inactive: 0.052	inactive: 0.021	inactive: 0.064	inactive: -0.039	inactive: -0.007	inactive: -0.042	inactive: 0.022	–	inactive: -0.034	inactive: 0.022	inactive: 0.048	inactive: -0.003	–
CDAN1 (UniProt Q8IWY9)	inactive: 0.057	inactive: -0.001	inactive: -0.044	inactive: -0.036	inactive: -0.168	inactive: -0.051	inactive: -0.006	inactive: 0.026	active: -0.398	inactive: 0.039	inactive: 0.046	inactive: -0.071	inactive: -0.022	inactive: -0.192	inactive: -0.067	inactive: 0.077	inactive: 0.022	inactive: 0.023	inactive: 0.002	–
CDC25A (UniProt P30304)	inactive: 0.034	inactive: -0.002	–	–	inactive: 0.035	inactive: 0.066	–	inactive: -0.003	–	inactive: -0.03	–	–	inactive: 0.075	inactive: -0.071	–	–	inactive: -0.037	inactive: 0.051	inactive: 0.028	inactive: 0.027
CDC40 (UniProt O60508)	inactive: -0.161	inactive: 0.136	inactive: 0.694	–	inactive: 0.124	inactive: 0.307	–	inactive: 0.216	inactive: 0.103	inactive: 0.043	–	inactive: -0.07	inactive: -0.191	inactive: 0.339	inactive: -0.221	inactive: 0.01	inactive: 0.354	inactive: 0.018	inactive: -0.124	inactive: 0.062
CBR1 (UniProt P16152)	inactive: 0.023	inactive: 0.009	inactive: 0.031	inactive: 0.097	inactive: -0.007	inactive: 0.061	inactive: -0.088	inactive: -0.035	inactive: 0.028	inactive: 0.006	inactive: -0.023	inactive: 0.005	inactive: 0.038	inactive: -0.032	inactive: -0.001	inactive: 0.074	inactive: 0.051	inactive: 0.005	inactive: 0.025	–
CD81 (UniProt P60033)	inactive: 0.027	inactive: 0.007	inactive: -0.026	inactive: -0.045	inactive: -0.018	inactive: 0.33	inactive: -0.122	inactive: -0.05	inactive: -0.01	inactive: 0.039	inactive: 0.112	inactive: 0.069	inactive: 0.054	inactive: -0.027	inactive: 0.156	inactive: -0.08	inactive: -0.06	inactive: 0.016	inactive: -0.008	–
CDC25B isoform 4 (UniProt P30305)	inactive: 0.068	inactive: 0.037	inactive: -0.302	inactive: 0.079	inactive: -0.049	inactive: 0.021	inactive: -0.02	inactive: 0.007	–	inactive: 0.203	inactive: -0.022	inactive: -0.008	inactive: -0.004	inactive: -0.039	inactive: 0.054	inactive: -0.077	inactive: -0.352	inactive: 0.032	inactive: -0.044	–
CDC37 (UniProt K7EL68)	inactive: 0.061	inactive: 0.006	inactive: -0.011	inactive: -0.125	inactive: 0	–	inactive: -0.008	inactive: -0.014	–	inactive: -0.079	inactive: -0.122	inactive: 0.133	inactive: 0.009	inactive: -0.108	inactive: -0.274	inactive: 0.101	–	–	inactive: 0.059	inactive: -0.254
CASP8 isoform 9 (UniProt Q14790)	inactive: -0.056	inactive: -0.027	inactive: 0.098	inactive: -0.058	inactive: -0.092	inactive: -0.264	inactive: -0.025	inactive: 0.124	inactive: 0	inactive: -0.054	inactive: -0.092	inactive: 0.017	inactive: -0.049	inactive: 0.064	inactive: 0	inactive: 0.177	inactive: 0.114	inactive: 0.115	inactive: 0	–
CCDC175 (UniProt P0C221)	inactive: -0.044	inactive: -0.04	inactive: -0.045	inactive: 0.06	–	inactive: 0.051	inactive: 0.001	inactive: 0.035	–	–	inactive: 0.022	inactive: 0.004	inactive: -0.087	–	inactive: -0.018	inactive: 0.034	inactive: -0.003	inactive: -0.006	inactive: 0.139	inactive: -0.006
CD2BP2 (UniProt O95400)	inactive: -0.099	inactive: 0.033	–	–	inactive: 0.149	inactive: 0.151	–	inactive: 0.008	inactive: -0.229	–	–	inactive: -0.018	inactive: -0.022	inactive: 0.182	inactive: -0.028	inactive: -0.216	–	inactive: 0.056	inactive: -0.021	–
CD69 (UniProt Q07108)	inactive: 0.027	inactive: 0.053	–	–	inactive: -0.061	–	–	inactive: 0.118	–	inactive: -0.187	–	inactive: -0.061	inactive: 0.015	inactive: 0.104	inactive: -0.096	inactive: -0.106	inactive: -0.141	–	inactive: -0.035	inactive: -0.143
CCNB1 (UniProt P14635)	inactive: 0.035	inactive: -0.024	active: -0.221	inactive: -0.016	inactive: -0.005	inactive: -0.014	inactive: 0.006	inactive: -0.018	inactive: 0.007	inactive: 0.021	inactive: -0.043	inactive: 0.011	inactive: 0	inactive: 0.017	inactive: 0.03	inactive: 0.008	inactive: -0.033	inactive: 0.007	inactive: -0.007	–

Some of the entries so far, comma-delimited:
Target,log2 fold change (IRAK-1-4 Inhibitor I),log2 fold change (ibrutinib),log2 fold change [1],log2 fold change (ralimetinib),log2 fold change [2],log2 fold change [3],log2 fold change [4],log2 fold change (pinometostat),log2 fold change [5],log2 fold change [6],log2 fold change [7],log2 fold change [8],log2 fold change [9],log2 fold change (Nexturastat A),log2 fold change (vemurafenib),log2 fold change [10],log2 fold change [11],log2 fold change (givinostat),log2 fold change (barasertib),log2 fold change [12]
CDC40 (UniProt O60508),inactive: -0.161,inactive: 0.136,inactive: 0.694,–,inactive: 0.124,inactive: 0.307,–,inactive: 0.216,inactive: 0.103,inactive: 0.043,–,inactive: -0.07,inactive: -0.191,inactive: 0.339,inactive: -0.221,inactive: 0.01,inactive: 0.354,inactive: 0.018,inactive: -0.124,inactive: 0.062
CBR1 (UniProt P16152),inactive: 0.023,inactive: 0.009,inactive: 0.031,inactive: 0.097,inactive: -0.007,inactive: 0.061,inactive: -0.088,inactive: -0.035,inactive: 0.028,inactive: 0.006,inactive: -0.023,inactive: 0.005,inactive: 0.038,inactive: -0.032,inactive: -0.001,inactive: 0.074,inactive: 0.051,inactive: 0.005,inactive: 0.025,–
